Laboratory results reported in US20100304462.

Legend:
Experiment in all cases: enzyme reaction in vitro
[1] = tested on: T1, NlaCI (Neisseria lactamica ST640); settings: cuts N19/N17 or N20/N18; protein in a lysate after overexpression
T1 sequence (limits assumed): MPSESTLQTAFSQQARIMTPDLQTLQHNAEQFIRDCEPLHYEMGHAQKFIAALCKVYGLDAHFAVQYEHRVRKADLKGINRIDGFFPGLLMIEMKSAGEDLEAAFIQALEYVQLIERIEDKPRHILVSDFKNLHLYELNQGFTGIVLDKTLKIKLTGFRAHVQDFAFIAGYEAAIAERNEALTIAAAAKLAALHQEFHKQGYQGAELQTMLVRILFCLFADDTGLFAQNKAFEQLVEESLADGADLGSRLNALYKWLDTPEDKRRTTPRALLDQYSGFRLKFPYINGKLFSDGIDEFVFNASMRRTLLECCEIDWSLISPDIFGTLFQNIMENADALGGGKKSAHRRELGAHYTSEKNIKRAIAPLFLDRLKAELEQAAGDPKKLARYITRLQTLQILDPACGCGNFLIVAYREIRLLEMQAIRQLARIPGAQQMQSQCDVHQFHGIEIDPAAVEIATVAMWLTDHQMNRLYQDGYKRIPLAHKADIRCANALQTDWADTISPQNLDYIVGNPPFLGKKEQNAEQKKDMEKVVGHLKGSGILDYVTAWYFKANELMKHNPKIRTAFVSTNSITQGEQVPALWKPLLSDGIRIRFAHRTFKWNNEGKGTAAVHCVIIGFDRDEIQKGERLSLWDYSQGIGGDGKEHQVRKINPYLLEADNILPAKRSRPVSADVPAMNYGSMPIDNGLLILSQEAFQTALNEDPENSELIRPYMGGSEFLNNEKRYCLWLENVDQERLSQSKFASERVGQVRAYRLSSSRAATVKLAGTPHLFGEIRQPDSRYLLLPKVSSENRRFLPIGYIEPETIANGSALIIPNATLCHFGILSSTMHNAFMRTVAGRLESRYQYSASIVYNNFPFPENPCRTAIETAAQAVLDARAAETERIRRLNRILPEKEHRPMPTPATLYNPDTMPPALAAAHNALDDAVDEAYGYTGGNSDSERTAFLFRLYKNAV

[2] = tested on: T2, CstMI (Corynebacterium striatum); settings: CITED; cuts N20/N18; protein in a lysate after overexpression
T2 sequence (limits assumed): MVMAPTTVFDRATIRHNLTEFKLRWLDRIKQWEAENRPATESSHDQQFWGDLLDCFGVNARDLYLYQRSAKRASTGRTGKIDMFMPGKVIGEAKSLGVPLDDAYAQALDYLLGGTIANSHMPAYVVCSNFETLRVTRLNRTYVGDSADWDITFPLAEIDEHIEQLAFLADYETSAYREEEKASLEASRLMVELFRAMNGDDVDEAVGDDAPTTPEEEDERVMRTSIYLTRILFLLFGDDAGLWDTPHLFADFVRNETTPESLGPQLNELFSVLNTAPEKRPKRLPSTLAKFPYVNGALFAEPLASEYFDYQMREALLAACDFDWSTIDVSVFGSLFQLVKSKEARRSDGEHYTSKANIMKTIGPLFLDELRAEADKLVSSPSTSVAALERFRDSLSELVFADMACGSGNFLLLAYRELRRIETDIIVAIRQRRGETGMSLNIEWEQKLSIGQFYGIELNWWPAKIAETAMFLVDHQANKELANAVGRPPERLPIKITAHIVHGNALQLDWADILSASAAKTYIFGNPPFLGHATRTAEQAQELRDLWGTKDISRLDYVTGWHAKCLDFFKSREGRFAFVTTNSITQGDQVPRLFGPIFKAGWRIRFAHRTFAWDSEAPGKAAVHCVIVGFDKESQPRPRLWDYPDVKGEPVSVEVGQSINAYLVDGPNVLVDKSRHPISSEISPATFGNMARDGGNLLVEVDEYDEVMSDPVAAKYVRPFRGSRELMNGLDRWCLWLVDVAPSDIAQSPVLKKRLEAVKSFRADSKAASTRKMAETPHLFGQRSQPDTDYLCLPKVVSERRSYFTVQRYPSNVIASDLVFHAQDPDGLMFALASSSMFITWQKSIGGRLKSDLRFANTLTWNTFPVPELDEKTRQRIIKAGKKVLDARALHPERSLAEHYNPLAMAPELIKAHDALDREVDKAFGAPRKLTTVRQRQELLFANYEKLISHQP

[3] = tested on: T3, NmeAIII D818R (Neisseria meningitidis Z2491); settings: no endonuclease activity, protein in a lysate after overexpression
T3 sequence (limits assumed): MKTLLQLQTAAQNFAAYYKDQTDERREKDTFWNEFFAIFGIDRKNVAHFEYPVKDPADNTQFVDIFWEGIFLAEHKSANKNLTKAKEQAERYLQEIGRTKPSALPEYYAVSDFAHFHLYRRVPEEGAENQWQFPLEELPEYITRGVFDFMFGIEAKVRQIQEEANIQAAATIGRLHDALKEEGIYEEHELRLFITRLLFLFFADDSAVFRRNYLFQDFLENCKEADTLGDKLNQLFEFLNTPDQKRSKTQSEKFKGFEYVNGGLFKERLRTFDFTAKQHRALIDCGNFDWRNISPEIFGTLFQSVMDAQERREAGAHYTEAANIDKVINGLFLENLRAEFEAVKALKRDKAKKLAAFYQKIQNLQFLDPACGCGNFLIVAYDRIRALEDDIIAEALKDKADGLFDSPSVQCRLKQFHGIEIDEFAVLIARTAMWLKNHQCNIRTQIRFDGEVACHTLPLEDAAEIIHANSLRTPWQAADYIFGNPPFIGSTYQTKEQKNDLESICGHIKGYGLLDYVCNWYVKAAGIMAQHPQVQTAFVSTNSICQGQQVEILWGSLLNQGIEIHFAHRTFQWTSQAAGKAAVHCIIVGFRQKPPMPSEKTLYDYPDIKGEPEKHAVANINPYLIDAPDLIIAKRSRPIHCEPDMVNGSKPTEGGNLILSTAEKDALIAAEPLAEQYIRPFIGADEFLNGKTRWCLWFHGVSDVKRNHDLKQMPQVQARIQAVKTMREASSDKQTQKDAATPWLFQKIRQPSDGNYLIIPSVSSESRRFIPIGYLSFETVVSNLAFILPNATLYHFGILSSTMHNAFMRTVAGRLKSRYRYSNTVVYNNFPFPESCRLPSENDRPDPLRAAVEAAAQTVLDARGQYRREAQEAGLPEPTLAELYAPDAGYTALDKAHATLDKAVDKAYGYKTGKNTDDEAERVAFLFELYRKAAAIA

[4] = tested on: T4, NmeAIII K816E+D818R (Neisseria meningitidis Z2491); settings: protein in a lysate after overexpression
T4 sequence (limits assumed): T3 sequence (limits assumed) with K816E

Question: Which “activity on this sequence” value [1] does the source give for CATCAC (double strand) [NlaCI site] here?
Answer: active

Question: For AAGGAG (double strand) [CstMI site], which “activity on this sequence” value [2] is on record?
Answer: active

Question: What does the source list for GCCGAG (double strand) [NmeAIII site]?
Answer: activity on this sequence [3]: not active; activity on this sequence ([4]; wild-type sites not matched by cutting): not active

Question: “GCCGAC (double strand) [NmeAIII 6C site]” was tested. Which “activity on this sequence” value ([3]; variant of NmeAIII site) did it give?
Answer: not active

Question: And the “activity on this sequence” value ([4]; NEBuffer 4, crude extract, variant of NmeAIII site)?
Answer: active

Changes are numbered by the printed parent chain. Protein sequences can lack the tags named with them. For part of these data: For at least one entry, the source does not settle the construct or the ends of the probe. For part of these data: No signal at the amounts used counts as a negative.
